The values that follow come from paper PMC2774482 (Basic & Clinical Pharmacology & Toxicology, 2009).

Marks after values point to notes of the source that are not given here.

For one series, the target named is serotonin reuptake. Particulars: serotonin reuptake inhibition; cited from earlier work.
The subject of another series is Caco-2 cell monolayers. The experiment in a line: Bidirectional transepithelial transport across Caco-2 cell monolayers. It is filed as in vitro ADME, human.
A further series concerns the target norepinephrine reuptake. Particulars: norepinephrine reuptake inhibition; cited from earlier work.
Where [1] appears, read: 1 µM, pH 6.8/7.4, + 10 µM Cyclosporine A.
Setting [2] is: 1 µM, pH 6.8/7.4, no inhibitor, TR = Papp(B–A)/Papp(A–B).
Where [3] appears, read: 1 µM, pH 7.4/7.4, + 4 µM GF120918.
Setting [4] is: 1 µM, pH 7.4/7.4, + 10 µM Cyclosporine A.
[5] abbreviates: 1 µM, pH 7.4/7.4, no inhibitor, TR = Papp(B–A)/Papp(A–B).
The mark [6] stands for this setting: 1 µM, pH 7.4/7.4, no inhibitor, control of GF120918 experiment (Table 2).
[7] abbreviates: 10 µM, pH 6.8/7.4, + 10 µM Cyclosporine A.
Setting [8] is: 10 µM, pH 6.8/7.4, no inhibitor.
Setting [9] is: 10 µM, pH 7.4/7.4, + 10 µM Cyclosporine A.
Where [10] appears, read: 10 µM, pH 7.4/7.4, no inhibitor.
The mark [11] stands for this setting: 50 µM, pH 6.8/7.4, + 10 µM Cyclosporine A.
[12] abbreviates: 50 µM, pH 6.8/7.4, no inhibitor.
Where [13] appears, read: 50 µM, pH 7.4/7.4, + 10 µM Cyclosporine A.
The mark [14] stands for this setting: 50 µM, pH 7.4/7.4, no inhibitor.
Setting [15] is: 100 µM, pH 6.8/7.4, + 10 µM Cyclosporine A.
The mark [16] stands for this setting: 100 µM, pH 6.8/7.4, no inhibitor.
The mark [17] stands for this setting: 100 µM, pH 7.4/7.4, + 10 µM Cyclosporine A.
Where [18] appears, read: 100 µM, pH 7.4/7.4, no inhibitor.

Broadly, the Ki is the dissociation constant of the complex between target and ligand, obtained from inhibition or displacement. Regarding `COc1cccc(C2(O)CCCCC2CN(C)C)c1` (single isomer, unassigned; (+)) [(+)-TMD, (+)-tramadol], the Ki on serotonin reuptake was 530 nM. Further, the “Efflux ratio (TR)” value in the series on Caco-2 cell monolayers (setting [1]) is 2.1; in the series on Caco-2 cell monolayers (setting [2]), 2.2 (efflux); with Caco-2 cell monolayers (setting [3]), 1.3; in the series on Caco-2 cell monolayers (setting [4]), 1.3; in the series on Caco-2 cell monolayers (setting [5]), 1.1 (no net flux) ^‡; in the series with Caco-2 cell monolayers (setting [6]), 1.2 (no net flux). The “Efflux ratio (TR)” value is recorded as 3.0 ^§ in the series on Caco-2 cell monolayers (setting [7]); 2.4 (efflux) with Caco-2 cell monolayers (setting [8]); 1.3 with Caco-2 cell monolayers (setting [9]); 1.1 (no net flux) ^‡ in the series on Caco-2 cell monolayers (setting [10]); 3.3 ^§ in the series on Caco-2 cell monolayers (setting [11]); 2.4 (efflux) in the series with Caco-2 cell monolayers (setting [12]). Besides, the “Efflux ratio (TR)” value is 1.3 ^§ with Caco-2 cell monolayers (setting [13]); 1.2 (no net flux) ^‡ with Caco-2 cell monolayers (setting [14]); 2.8 with Caco-2 cell monolayers (setting [15]); 2.6 (efflux) in the series with Caco-2 cell monolayers (setting [16]); 1.7 with Caco-2 cell monolayers (setting [17]); 1.6 (no net flux) ^‡ in the series with Caco-2 cell monolayers (setting [18]).
As for `COc1cccc(C2(O)CCCCC2CN(C)C)c1` (single isomer, unassigned; (-)) [(−)-TMD, (−)-tramadol], on norepinephrine reuptake, the Ki is 430 nM. In addition, the “Efflux ratio (TR)” value is on record as 1.9 with Caco-2 cell monolayers (setting [1]); 1.9 (efflux) in the series with Caco-2 cell monolayers (setting [2]); 1.3 in the series on Caco-2 cell monolayers (setting [3]); 1.1 ^§ in the series with Caco-2 cell monolayers (setting [4]); 0.9 (no net flux) ^‡ in the series with Caco-2 cell monolayers (setting [5]); 1.1 (no net flux) with Caco-2 cell monolayers (setting [6]). Also, the “Efflux ratio (TR)” value is given as 2.8 ^§ with Caco-2 cell monolayers (setting [7]); 2.4 (efflux) in the series with Caco-2 cell monolayers (setting [8]); 1.3 ^§ in the series on Caco-2 cell monolayers (setting [9]); 1.1 (no net flux) ^‡ with Caco-2 cell monolayers (setting [10]); 3.3 ^§ in the series on Caco-2 cell monolayers (setting [11]); 2.4 (efflux) in the series with Caco-2 cell monolayers (setting [12]). Also, the “Efflux ratio (TR)” value is recorded as 1.3 in the series with Caco-2 cell monolayers (setting [13]); 1.1 (no net flux) ^‡ in the series on Caco-2 cell monolayers (setting [14]); 2.8 in the series with Caco-2 cell monolayers (setting [15]); 2.7 (efflux) in the series on Caco-2 cell monolayers (setting [16]); 1.8 in the series with Caco-2 cell monolayers (setting [17]); 1.5 (no net flux) ^‡ in the series with Caco-2 cell monolayers (setting [18]).
